The results in this text go back to paper doi:10.1101/2025.06.14.659623.

By UniProt entry, the sequences of proteins in these tests, tags left out. Residues count along the entry.
UniProt Q6DV88, residues 2507-3411: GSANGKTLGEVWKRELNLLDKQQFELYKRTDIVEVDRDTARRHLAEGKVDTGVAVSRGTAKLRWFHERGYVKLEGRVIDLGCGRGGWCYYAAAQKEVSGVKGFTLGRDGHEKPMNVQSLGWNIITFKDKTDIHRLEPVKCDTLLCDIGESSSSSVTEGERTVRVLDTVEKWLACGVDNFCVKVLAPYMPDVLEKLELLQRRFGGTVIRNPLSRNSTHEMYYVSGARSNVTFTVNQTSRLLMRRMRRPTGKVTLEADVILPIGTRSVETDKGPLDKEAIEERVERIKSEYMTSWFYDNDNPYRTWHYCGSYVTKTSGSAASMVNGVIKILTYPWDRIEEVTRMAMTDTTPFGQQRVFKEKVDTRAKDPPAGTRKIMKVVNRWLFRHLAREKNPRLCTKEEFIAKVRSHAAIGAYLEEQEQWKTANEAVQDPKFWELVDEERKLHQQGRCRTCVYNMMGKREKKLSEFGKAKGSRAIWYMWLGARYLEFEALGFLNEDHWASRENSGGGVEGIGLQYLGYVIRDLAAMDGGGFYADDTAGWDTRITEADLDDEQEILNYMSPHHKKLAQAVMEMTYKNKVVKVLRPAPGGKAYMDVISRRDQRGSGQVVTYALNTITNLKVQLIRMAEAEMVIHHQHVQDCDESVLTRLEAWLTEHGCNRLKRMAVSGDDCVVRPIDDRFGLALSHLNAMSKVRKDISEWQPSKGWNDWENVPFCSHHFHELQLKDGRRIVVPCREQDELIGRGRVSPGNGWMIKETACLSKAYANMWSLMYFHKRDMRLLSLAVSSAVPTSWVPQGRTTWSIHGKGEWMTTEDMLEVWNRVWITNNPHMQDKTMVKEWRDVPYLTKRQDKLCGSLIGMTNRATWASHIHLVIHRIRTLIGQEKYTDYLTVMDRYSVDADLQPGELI
UniProt Q7Z6E9: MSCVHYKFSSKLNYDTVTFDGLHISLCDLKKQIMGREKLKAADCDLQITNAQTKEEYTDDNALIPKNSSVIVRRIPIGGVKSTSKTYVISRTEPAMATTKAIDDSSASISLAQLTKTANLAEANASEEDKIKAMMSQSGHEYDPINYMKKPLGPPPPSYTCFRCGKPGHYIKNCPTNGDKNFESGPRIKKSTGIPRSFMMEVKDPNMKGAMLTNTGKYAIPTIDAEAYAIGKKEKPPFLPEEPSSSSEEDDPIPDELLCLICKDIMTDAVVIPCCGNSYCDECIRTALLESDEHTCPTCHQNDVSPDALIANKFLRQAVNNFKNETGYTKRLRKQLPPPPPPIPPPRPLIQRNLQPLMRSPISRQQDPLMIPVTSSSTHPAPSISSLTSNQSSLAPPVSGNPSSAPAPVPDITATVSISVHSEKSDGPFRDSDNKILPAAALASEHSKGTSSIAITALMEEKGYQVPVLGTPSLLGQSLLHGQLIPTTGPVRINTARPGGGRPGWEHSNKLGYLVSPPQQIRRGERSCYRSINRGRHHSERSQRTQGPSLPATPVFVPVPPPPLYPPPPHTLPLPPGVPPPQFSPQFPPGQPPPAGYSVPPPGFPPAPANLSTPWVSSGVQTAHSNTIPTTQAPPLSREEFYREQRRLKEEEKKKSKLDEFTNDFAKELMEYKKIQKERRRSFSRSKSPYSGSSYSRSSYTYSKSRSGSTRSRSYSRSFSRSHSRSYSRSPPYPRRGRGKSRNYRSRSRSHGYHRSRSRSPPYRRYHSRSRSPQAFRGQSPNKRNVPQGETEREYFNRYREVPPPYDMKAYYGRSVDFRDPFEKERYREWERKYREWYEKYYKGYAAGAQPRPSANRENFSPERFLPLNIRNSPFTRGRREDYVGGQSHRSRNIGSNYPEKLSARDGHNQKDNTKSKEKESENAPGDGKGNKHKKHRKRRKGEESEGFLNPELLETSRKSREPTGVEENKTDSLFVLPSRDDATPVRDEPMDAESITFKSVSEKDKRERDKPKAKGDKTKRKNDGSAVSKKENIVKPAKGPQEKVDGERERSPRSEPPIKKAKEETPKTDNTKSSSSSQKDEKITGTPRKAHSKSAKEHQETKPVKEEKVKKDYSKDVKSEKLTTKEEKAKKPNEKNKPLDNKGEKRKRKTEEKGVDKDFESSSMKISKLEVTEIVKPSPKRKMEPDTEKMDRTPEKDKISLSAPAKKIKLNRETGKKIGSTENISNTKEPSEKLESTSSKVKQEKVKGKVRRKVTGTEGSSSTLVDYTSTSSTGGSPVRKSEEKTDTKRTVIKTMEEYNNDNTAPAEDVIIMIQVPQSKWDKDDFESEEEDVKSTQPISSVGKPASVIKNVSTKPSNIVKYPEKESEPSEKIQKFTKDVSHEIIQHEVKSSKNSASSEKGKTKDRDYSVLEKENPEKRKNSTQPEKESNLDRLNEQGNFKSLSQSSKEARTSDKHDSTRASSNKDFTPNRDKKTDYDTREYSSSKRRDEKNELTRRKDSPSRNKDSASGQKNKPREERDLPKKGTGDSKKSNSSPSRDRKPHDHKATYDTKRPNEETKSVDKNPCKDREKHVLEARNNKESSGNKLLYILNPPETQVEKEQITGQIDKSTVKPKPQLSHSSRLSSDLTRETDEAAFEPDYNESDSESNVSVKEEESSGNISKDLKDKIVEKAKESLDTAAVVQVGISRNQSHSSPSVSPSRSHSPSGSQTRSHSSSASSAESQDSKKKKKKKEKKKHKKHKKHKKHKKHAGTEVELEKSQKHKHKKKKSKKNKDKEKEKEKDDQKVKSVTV

This assay concerns the target YFV-Asibi NS5 with C-terminal 2xStrep II affinity tag (yellow fever virus, strain Asibi) (UniProt Q6DV88). Put plainly: affinity purification with mass spectrometry.

Results are given in words; binding and its absence hold for the method and conditions named. Binding seen in cells or lysates may run through a third protein. These calls come from enrichment with a bait or labelling near it, and not all partners need be listed.

As for “RBBP6 (retinoblastoma binding protein 6), endogenous in HEK293T (from UniProt Q7Z6E9 1-1792)”, the binding entry is “binds”.
